Results: PubChem BioAssay AID1487 (National Center for Advancing Translational Sciences (NCATS), 2009)
The other results are listed elsewhere or left out. The main result of the screen is listed elsewhere. These columns were measured beside it and carry no call. Most of these compounds were active or inconclusive in the main read-out, so they are no random draw. Potencies come from curve fits of mixed quality, noted in brackets.

Test: qHTS Assay for Modulators of Lamin A Splicing
Settings: HeLa LMNA splicing GFP/RFP minigene ratio, 48 h
Method in brief: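 Read-out is the ratio of GFP to DsRed2 object intensity, acquired by 488 nm laser-scanning cytometry on HeLa lamin A-EGFP minigene reporter cells. Compound incubation 48 hrs at 37 °C in Opti-MEM with 2% FBS; DMSO 0.5% final.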

[1] = measured here: RFP viability control channel
[2] = measured here: GFP splicing reporter channel

## Cc1ccc(S(=O)(=O)N2c3ccccc3OCC2C(C)(C)C)cc1 (stereo not drawn)
[1]
  AC50: 31.6 µM [rising, single point]

## Cc1ccsc1C(=O)NNC(=O)C1C2C=CC(C2)C1C(=O)O (stereo not drawn)
[2]
  AC50: 0.00501 µM [falling, full curve, poor fit]
[1]
  AC50: 0.00501 µM [falling, full curve, poor fit]

## CC1CCC(NC(=O)CN2CCCN(Cc3ccc(F)cc3Cl)C2=O)CC1 (stereo not drawn)
[2]
  AC50: 4.47 µM [rising, partial curve]
[1]
  AC50: 11.2 µM [rising, partial curve]

## CCOc1ccc(-n2c(=O)c3sccc3n(Cc3cccc([N+](=O)[O-])c3)c2=O)cc1
[1]
  AC50: 0.01 µM [rising, full curve, poor fit]

## COC(=O)c1cc([N+](=O)[O-])ccc1N1CCN(Cc2ccccc2)CC1
[1]
  AC50: 0.708 µM [rising, full curve, poor fit]

## O=C(NNC1=C(C(=O)C(F)(F)F)CCC1)c1ccc(Br)cc1
[1]
  AC50: 35.5 µM [rising, single point]

## O=C(Nc1nnc(C2CC2)s1)C1Cc2ccccc2CN1S(=O)(=O)c1cccs1 (stereo not drawn)
[2]
  AC50: 12.6 µM [rising, single point]

## c1ccc(CSc2nnc(NC3=NCCCCC3)s2)cc1
[2]
  AC50: 14.1 µM [rising, single point]
[1]
  AC50: 22.4 µM [rising, partial curve]

## O=C(Nc1ccccc1)C1=C(O)CC(c2ccc(Cl)cc2)N2CCN=C12 (stereo not drawn)
[2]
  AC50: 35.5 µM [rising, single point]

## CCCCc1nn2c(=O)cc(COC(=O)c3cccc(NC(=O)COc4ccccc4)c3)nc2s1
[2]
  AC50: 0.0282 µM [rising, full curve, poor fit]

## Cc1cccc(/C(N)=N/OC(=O)c2ccccc2Cl)c1
[2]
  AC50: 6.31 µM [rising, single point]
[1]
  AC50: 3.55 µM [rising, single point]

## O=C(NC1CCCCCC1)C1CCN(C(=O)N2CCOc3ccc(Cl)cc32)CC1
[2]
  AC50: 22.4 µM [rising, partial curve, poor fit]
[1]
  AC50: 14.1 µM [rising, partial curve]

## CN1/C(=C\C(=O)c2cccc(S(=O)(=O)N3CCCCC3)c2)C(C)(C)c2ccccc21
[2]
  AC50: 10 µM [rising, partial curve, poor fit]
[1]
  AC50: 10 µM [rising, partial curve]

## Cc1cc(Br)c(NC(=O)COC(=O)CSc2nnc(-c3ccc(Cl)cc3)o2)c(Br)c1
[2]
  AC50: 12.6 µM [rising, partial curve, poor fit]

## COc1ccc(N(CC(=O)Nc2cccc(C)c2C)S(=O)(=O)c2c(C)n[nH]c2C)cc1
[1]
  AC50: 1.78 µM [falling, partial curve]

## CCC(C)CCCCC(=O)NC(CCN)C(=O)NC(C(=O)NC(CCN)C(=O)NC1CCNC(=O)C(C(C)O)NC(=O)C(CCN)NC(=O)C(CCN)NC(=O)C(CC(C)C)NC(=O)C(Cc2ccccc2)NC(=O)C(CCN)NC1=O)C(C)O (stereo not drawn)
[2]
  AC50: 0.0126 µM [falling, full curve, poor fit]
[1]
  AC50: 0.000794 µM [rising, full curve, poor fit]

## CCOCCCNC(=O)c1ccc2c(c1)NC(=O)C(CS(=O)(=O)Cc1ccc(F)cc1Cl)N2 (stereo not drawn)
[2]
  AC50: 1.26 µM [falling, full curve, poor fit]
[1]
  AC50: 0.355 µM [falling, full curve, poor fit]

## Cc1cc2[nH]c(=O)c(=O)[nH]c2cc1S(=O)(=O)NCc1ccc(F)cc1
[1]
  AC50: 35.5 µM [falling, single point]

## CC(OC(=O)C1CCCCC1)c1nc2ccccc2[nH]1 (stereo not drawn)
[2]
  AC50: 11.2 µM [rising, single point]
[1]
  AC50: 12.6 µM [rising, partial curve]

## COc1cccc(-c2nc(NCCc3c[nH]c4ccc(OC)cc34)c3ccccc3n2)c1
[2]
  AC50: 22.4 µM [falling, single point]
[1]
  AC50: 22.4 µM [falling, single point]

## O=C(Nc1ccc(Cl)cc1Cl)c1cc(S(=O)(=O)N2CCC3(CC2)OCCO3)ccc1F
[1]
  AC50: 14.1 µM [rising, single point]

## O=C(Cc1ccccc1F)Nc1ccccc1-c1ccccc1
[1]
  AC50: 39.8 µM [falling, partial curve, poor fit]

## CN(C)S(=O)(=O)c1ccc(NC(=O)COC(=O)CC2CC3CCC2C3)cc1 (stereo not drawn)
[2]
  AC50: 0.00447 µM [falling, full curve, poor fit]

## CN(C)C=Nc1ncc2c([nH]c3ccccc32)c1C#N
[2]
  AC50: 6.31 µM [rising, partial curve, poor fit]
[1]
  AC50: 3.55 µM [rising, partial curve, poor fit]

## COc1ccc(-c2nnc(SCc3ncc(-c4ccccc4)o3)o2)cc1
[2]
  AC50: 35.5 µM [rising, single point]
[1]
  AC50: 35.5 µM [rising, single point]

## CCCOC(=O)Oc1ccc2c(=O)c(Oc3cc(C)cc(C)c3)coc2c1
[1]
  AC50: 10 µM [rising, single point]

## O=C1C2CC=CCC2C(=O)N1c1ccc(NCCc2ccc(O)cc2)c([N+](=O)[O-])c1 (stereo not drawn)
[2]
  AC50: 5.62 µM [rising, partial curve, poor fit]
[1]
  AC50: 11.2 µM [rising, partial curve]

## Cc1ccc(-c2csc3ncnc(Oc4ccc5c(C)cc(=O)oc5c4)c23)cc1
[2]
  AC50: 7.94 µM [rising, partial curve, poor fit]
[1]
  AC50: 7.94 µM [rising, partial curve]

## O=C(CN1C(=O)c2ccccc2C1=O)NCCc1c[nH]c2ccc(Cl)cc12
[1]
  AC50: 2.51 µM [falling, partial curve, poor fit]

## Cn1nc(C(F)(F)F)c2cc(NC(=O)OCc3ccc(C(C)(C)C)cc3)sc21
[2]
  AC50: 15.8 µM [rising, single point]
[1]
  AC50: 20 µM [rising, single point]

## CCOC(=O)c1cc(CC)sc1NC(=O)Cc1ccsc1
[2]
  AC50: 22.4 µM [rising, single point]
[1]
  AC50: 15.8 µM [rising, single point]

## CCOc1cc(-c2nnc(SCC(=O)NCc3ccccc3)nc2-c2ccc(OC)c(OCC)c2)ccc1OC
[2]
  AC50: 0.158 µM [falling, full curve, poor fit]

## COc1ccc(C(=O)C(Cc2cc(C(C)=O)ccc2OC)N2CCCC2)cc1 (stereo not drawn)
[1]
  AC50: 11.2 µM [rising, partial curve, poor fit]

## N#Cc1c(N)nc2c(c1-c1ccncc1)CCCC2
[2]
  AC50: 14.1 µM [rising, single point]

## O=C1C(Nc2ccccc2)=C(NS(=O)(=O)c2ccccc2)C(=O)c2ccccc21
[1]
  AC50: 0.251 µM [rising, partial curve]

## O=C(CSc1nc2ccc([N+](=O)[O-])cc2[nH]1)c1ccc2ccccc2c1
[1]
  AC50: 12.6 µM [falling, partial curve]

## CCc1ccc(NC(=O)C2CCCN(S(=O)(=O)c3ccc4c(c3)CCCN4C(C)=O)C2)cc1 (stereo not drawn)
[2]
  AC50: 12.6 µM [falling, partial curve]
[1]
  AC50: 0.562 µM [falling, partial curve, poor fit]

## N#CCC(N)=C(C#N)C#N
[1]
  AC50: 0.0708 µM [falling, full curve]

## CCOc1ccccc1C(=O)N(CN1CCCC1=O)c1ccc(C)c(Cl)c1
[2]
  AC50: 10 µM [rising, partial curve]
[1]
  AC50: 12.6 µM [rising, partial curve]

## CC/C(=N\Nc1ccccc1[N+](=O)[O-])c1ccc(O)cc1
[2]
  AC50: 3.55 µM [falling, single point]
[1]
  AC50: 8.91 µM [falling, single point]

## O=C(CSc1nc2ccccc2o1)N1CCN(S(=O)(=O)c2ccc3ccccc3c2)CC1
[1]
  AC50: 12.6 µM [rising, partial curve]

## COc1ccc(CCNC(=O)c2ccc(CSc3ccccc3)o2)cc1
[1]
  AC50: 0.0708 µM [falling, partial curve, poor fit]

## C#CC[N+]1(CC#Cc2ccc(C)cc2)CCCCC1
[1]
  AC50: 31.6 µM [rising, single point]

## O=C(c1ccc(S(=O)(=O)N2CCOCC2)cc1)N1CCN(c2cccc(Cl)c2)CC1
[1]
  AC50: 22.4 µM [rising, single point]

## CCCNC(=O)C(=O)NCC(c1ccc2c(c1)OCO2)N1CCOCC1 (stereo not drawn)
[2]
  AC50: 6.31 µM [rising, partial curve, poor fit]

## CCOc1ccc(NC(=S)N(CCN2CCOCC2)Cc2cc3cc4c(cc3[nH]c2=O)OCO4)cc1
[2]
  AC50: 35.5 µM [falling, single point]

## CCN(CC)CCOC(=O)C1(C2CCCCC2)CCCCC1
[2]
  AC50: 0.0708 µM [falling, full curve, poor fit]
[1]
  AC50: 0.0708 µM [falling, full curve, poor fit]

## CCCCOCCOCCOCc1cc2c(cc1CCC)OCO2
[2]
  AC50: 35.5 µM [falling, single point]
[1]
  AC50: 0.0355 µM [rising, full curve, poor fit]

## Cc1ccccc1-n1nc(CSc2nc3ccccc3[nH]2)c(-c2ccccc2)c1N
[1]
  AC50: 20 µM [rising, partial curve, poor fit]

## COc1ccc(Oc2cn[nH]c2-c2ccc(O)cc2O)cc1
[2]
  AC50: 15.8 µM [rising, single point]
[1]
  AC50: 17.8 µM [rising, partial curve]

## Cc1ccc(NS(=O)(=O)c2ccc(C)c(NC(=O)COc3ccccc3)c2)c(C)c1
[1]
  AC50: 12.6 µM [rising, partial curve, poor fit]
